Data taken from article PMC5689596.

Biological target: T1, neural pentraxin-1 precursor (Nptx1), endogenous in mouse hypothalamus (mouse (endogenous in hypothalamus)) (UniProt Q62443)
T1 sequence: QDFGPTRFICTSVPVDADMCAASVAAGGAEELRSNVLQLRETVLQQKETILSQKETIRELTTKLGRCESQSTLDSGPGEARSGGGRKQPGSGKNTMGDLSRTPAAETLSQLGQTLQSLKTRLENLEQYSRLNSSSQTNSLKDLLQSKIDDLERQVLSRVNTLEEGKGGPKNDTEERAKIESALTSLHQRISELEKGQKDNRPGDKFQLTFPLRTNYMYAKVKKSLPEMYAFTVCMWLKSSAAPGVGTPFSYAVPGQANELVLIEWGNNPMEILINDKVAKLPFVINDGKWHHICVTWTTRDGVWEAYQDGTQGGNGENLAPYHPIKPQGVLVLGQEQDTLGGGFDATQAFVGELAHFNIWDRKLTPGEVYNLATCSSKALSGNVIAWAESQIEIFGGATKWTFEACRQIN
Assay: affinity purification with mass spectrometry; immunoprecipitation of Nptx1 from mice hypothalamus before and during puberty; blue staining, bands identified by mass spectrometry

B1: Makorin ring finger protein 3 (Mkrn3), endogenous in mouse hypothalamus (protein, UniProt Q60764 1-544)
chain: MEESTAPIEAHAAAGAEAGAEGGEGVSVPPPPQFEAAGASAGVSSAPLQQASGLAPLLVTPGPAIRRAASLRPAPAEGGGARSGPERNSGSWTKQILCRYYLHGQCKEGDNCRYSHDLSGRRRSRGGQDAQPRASADRGPKMATRWEPPTQEVAEAPPAASSSSLPLIGSAAERGFTEAEIDNAGIRSAAERGFSEAEIDNASLAAGAAAGAGAEGWEGAIEFVPGQPYRGRMVPPHGPEAPLQSPAIEREHMAMGMGMPMPVPMPMPVPMPVPMPLPLCRYAARGQCLRGDRCAYPHGEICDMCGQQALHPWDAAQQEAHRRACVEAHERDMELSFAVQRSMDKVCGICMEVVYEKADPSDRRFGILFSCNHTYCLRCIRRWRSATQFENRISKSCPQCRVSSGFVIPSEFWVEEEEEKEKLVQQYKEGMSQKACRYFAGGLGHCPFGEFCFYKHEYPEGWRDQPPRPDGGGSSSAYWHQVLEPVQLREGNVLFKSRKKEHSVLRLANQLLKKLLCLRGSSSFSDDRWLLLQYQLEEYFSLNL
Q: How did the binding turn out when B1 was run?
A: Its binding is “binds”.

No constants are given. Whether binding was seen depends on the method and setting. Binding seen in cells or lysates may run through a third protein. A yes stands for co-enrichment or nearness to the bait. Other partners may have been found.
